Assay results taken from PubChem BioAssay AID330 (DTP/NCI, 2004).
The list shows only some results of the screen, not a fair sample: it gathers tests that were run many times, whatever their T/C, doses with no T/C, and many T/C values between a quarter and a half above the control. Other doses and runs of a compound stand elsewhere. T/C is the treated group as % of the vehicle group. Some doses have a count of surviving animals in place of a T/C: the source files T/C as zero there, which appears to mark a toxic dose or a test without result, not a measured value. Some survivor counts are full or nearly so, which does not show that the dose was tolerated: the source hardly ever lists a survival T/C far under the control, and the zero likely stands for such cases as well. Counts of survivors are from the toxicity check (mostly the fifth day) where no day follows; animals may have died later. Schedules are NCI's codes, taken here to give the interval after Q, in days (D) or hours (H), and the number of doses after X. Additions like (4×) give the number of equal values in this list. Some entries were tested several times; the results are listed from low to high. Some molecules as drawn cover several salts, stereoisomers or complexes of the source; a dose is that of the sample tested. Where survival is the endpoint, this PubChem deposit counts one and a half times the control or more as active, and values a quarter to a half above the control carry no call in these data; other NCI protocols may use other cut-offs. Some T/C values carry the count of animals alive at the toxicity check (mostly the fifth day); where none is given, no animal had died by that day.

Tested on: P388 leukemia ip, CD2F1 mice, survival T/C
Test: NCI In Vivo Anticancer Drug Screen. Data for tumor model P388 Leukemia (intraperitoneal) in CD2F1 (CDF1) mice
Conditions: T/C endpoint: median survival time, higher T/C = longer survival
[1] = dose: 200.0 mg/kg/injection, schedule: Q04DX003 (ip), vehicle: saline with Tween-80
[2] = dose: 400.0 mg/kg/injection, schedule: Q04DX003 (ip), vehicle: saline with Tween-80
[3] = dose: 7.5 mg/kg/injection, schedule: Q01DX005 (ip), vehicle: Klucel (hydroxypropylcellulose) (HPC)

Compound: CCN(CC)CCNc1ccc(CO)c2sc3ccccc3c(=O)c12
- T/C (dose: 6.25 mg/kg/injection, schedule: Q01DX005 (ip), vehicle: water): 97, 100, 103 % of control (2×)
- T/C (dose: 12.5 mg/kg/injection, schedule: Q01DX005 (ip), vehicle: water): 96, 102 [5 of 6 alive], 109, 113 % of control
- T/C (dose: 25.0 mg/kg/injection, schedule: Q01DX005 (ip), vehicle: water): 96, 113, 115, 116 % of control
- T/C (dose: 40.0 mg/kg/injection, schedule: Q01DX005 (ip), vehicle: water): 128 % of control
- T/C (dose: 40.0 mg/kg/injection, schedule: Q01DX009 (ip), vehicle: water): 148 % of control
- T/C (dose: 48.0 mg/kg/injection, schedule: Q01DX005 (ip), vehicle: water): 130 % of control
- T/C (dose: 50.0 mg/kg/injection, schedule: Q01DX005 (ip), vehicle: saline): 125 % of control
- T/C (dose: 50.0 mg/kg/injection, schedule: Q01DX005 (ip), vehicle: water): 99, 138, 154, 158 % of control
- survivor count (dose: 80.0 mg/kg/injection, schedule: Q01DX009 (ip), vehicle: water): 6 of 6
- T/C (dose: 100.0 mg/kg/injection, schedule: Q01DX005 (ip), vehicle: water): 94 [4 of 5 alive], 104, 157, 163 % of control
- T/C (dose: 132.0 mg/kg/injection, schedule: Q04DX003 (ip), vehicle: saline sonified): 131 % of control
- survivor count (dose: 160.0 mg/kg/injection, schedule: Q01DX005 (ip), vehicle: water): 6 of 6
- T/C [1]: 127 % of control
- T/C (dose: 300.0 mg/kg/injection, schedule: Q04DX003 (ip), vehicle: saline sonified): 140 % of control

Compound: S=P(N1CC1)(N1CC1)N1CC1
- T/C (dose: 1.5 mg/kg/injection, schedule: Q01DX005 (ip), vehicle: saline): 132 % of control
- T/C (dose: 1.5 mg/kg/injection, schedule: Q01DX009 (ip), vehicle: saline, evaluated on day 30): 148 % of control
- T/C (dose: 1.5 mg/kg/injection, schedule: Q01DX009 (ip), vehicle: saline, evaluated on day 60): 135 % of control
- T/C (dose: 2.5 mg/kg/injection, schedule: Q01DX005 (ip), vehicle: saline): 129 % of control
- T/C (dose: 2.5 mg/kg/injection, schedule: Q04DX003 (ip), vehicle: water): 125 % of control
- T/C (dose: 3.0 mg/kg/injection, schedule: Q01DX005 (ip), vehicle: saline): 145 and 148 % of control
- T/C (dose: 5.0 mg/kg/injection, schedule: Q04DX003 (ip), vehicle: water): 128 and 135 % of control
- T/C (dose: 5.4 mg/kg/injection, schedule: Q04DX002 (ip), vehicle: saline): 133 % of control
- survivor count (dose: 10.0 mg/kg/injection, schedule: Q01DX005 (ip), vehicle: saline): 8 of 8
- survivor count (dose: 12.0 mg/kg/injection, schedule: Q01DX005 (ip), vehicle: saline): 6 of 8 and 6 of 6
- survivor count (dose: 12.0 mg/kg/injection, schedule: Q01DX009 (ip), vehicle: saline): 6 of 6 (2×)
- survivor count (dose: 16.0 mg/kg/injection, schedule: Q01DX009 (ip), vehicle: saline): 6 of 6
- survivor count (dose: 24.0 mg/kg/injection, schedule: Q01DX009 (ip), vehicle: saline): 6 of 6
- survivor count (dose: 32.0 mg/kg/injection, schedule: Q01DX009 (ip), vehicle: saline): 6 of 6

Compound: CCOc1ccccc1N=Nc1c(C)nn(C(=S)SC)c1OCC
- survivor count (dose: 120.0 mg/kg/injection, schedule: Q01DX005 (ip), vehicle: Klucel + Tween-80): 6 of 6
- survivor count (dose: 240.0 mg/kg/injection, schedule: Q01DX005 (ip), vehicle: Klucel + Tween-80): 6 of 6

Compound: CCc1c(-c2ccc(Cl)cc2)nc(N)nc1-c1nc(N)nc(-c2ccc(Cl)cc2)c1CC
- survivor count (dose: 240.0 mg/kg/injection, schedule: Q01DX005 (ip), vehicle: saline): 3 of 6

Compound: Cc1ncc(Cl)c2cc3ccccc3cc12
- survivor count (dose: 100.0 mg/kg/injection, schedule: Q01DX009 (ip), vehicle: saline): 6 of 6

Compound: CC1CC(c2ccc3ccccc3c2)NCCNC(c2ccc3ccccc3c2)CC(C)NCCN1 (stereo unspecified)
- survivor count (dose: 0.78 mg/kg/injection, schedule: Q01DX009 (ip), vehicle: saline): 6 of 6
- survivor count (dose: 1.56 mg/kg/injection, schedule: Q01DX009 (ip), vehicle: saline): 6 of 6
- survivor count (dose: 3.12 mg/kg/injection, schedule: Q01DX009 (ip), vehicle: saline): 6 of 6
- survivor count (dose: 6.25 mg/kg/injection, schedule: Q01DX009 (ip), vehicle: saline): 6 of 6

Compound: CN(C)C=Nc1ccc(Cl)cc1
- survivor count (dose: 100.0 mg/kg/injection, schedule: Q01DX009 (ip), vehicle: saline with Tween-80): 0 of 6
- survivor count (dose: 200.0 mg/kg/injection, schedule: Q01DX009 (ip), vehicle: saline with Tween-80): 0 of 6

Compound: O=c1oc(-c2ccccc2)nc2c1CCCS2
- survivor count (dose: 50.0 mg/kg/injection, schedule: Q01DX005 (ip), vehicle: Klucel (hydroxypropylcellulose) (HPC)): 6 of 6

Compound: Nc1ccc2c(-c3ccccc3)cc(=O)[nH]c2c1
- survivor count (dose: 200.0 mg/kg/injection, schedule: Q01DX005 (ip), vehicle: Klucel (hydroxypropylcellulose) (HPC)): 5 of 5

Compound: C1CCN(P(N2CCCCC2)N2CCCCC2)CC1
- survivor count [1]: 5 of 6
- survivor count [2]: 0 of 6

Compound: CN(C)CCC=C1c2ccccc2C=Cc2ccccc21
- survivor count (dose: 100.0 mg/kg/injection, schedule: Q01DX005 (ip), vehicle: saline): 4 of 6
- survivor count (dose: 200.0 mg/kg/injection, schedule: Q01DX005 (ip), vehicle: saline): 0 of 6

Compound: O=S(=O)(O)CC[S][Sn]([S]CCS(=O)(=O)O)([c]1ccccc1)[c]1ccccc1 (tested in a mixture with another compound)
- T/C (dose: 0.93 mg/kg/injection, schedule: Q01DX005 (ip), vehicle: Klucel (hydroxypropylcellulose) (HPC)): 134 % of control
- T/C (dose: 3.75 mg/kg/injection, schedule: Q01DX005 (ip), vehicle: Klucel (hydroxypropylcellulose) (HPC)): 137 % of control
- T/C [3]: 137 % of control
- survivor count [3]: 3 of 6
- survivor count (dose: 15.0 mg/kg/injection, schedule: Q01DX005 (ip), vehicle: Klucel (hydroxypropylcellulose) (HPC)): 1 of 6
- survivor count (dose: 60.0 mg/kg/injection, schedule: Q01DX005 (ip), vehicle: Klucel (hydroxypropylcellulose) (HPC)): 0 of 6
- survivor count (dose: 120.0 mg/kg/injection, schedule: Q01DX005 (ip), vehicle: Klucel (hydroxypropylcellulose) (HPC)): 0 of 6
- survivor count (dose: 240.0 mg/kg/injection, schedule: Q01DX005 (ip), vehicle: Klucel (hydroxypropylcellulose) (HPC)): 0 of 6

Compound: c1ccc(C(NC2CC3CCC2C3)c2ccccc2)cc1 (stereo unspecified)
- survivor count (dose: 150.0 mg/kg/injection, schedule: Q01DX009 (ip), vehicle: saline with Tween-80): 2 of 6

Compound: Cc1nc2c([N+](=O)[O-])c(NCCCc3ccccc3)c([N+](=O)[O-])cc2[nH]1
- survivor count [1]: 0 of 6 and 1 of 6
- survivor count [2]: 0 of 6

Compound: Oc1ccc(CCNCc2ccc3c(c2)OCO3)cc1O
- survivor count (dose: 400.0 mg/kg/injection, schedule: Q04DX002 (ip), vehicle: Klucel (hydroxypropylcellulose) (HPC)): 3 of 6

Compound: Cc1ccc(S(=O)(=O)N=N/C=C2/C=CC=CN2O)cc1
- T/C (dose: 50.0 mg/kg/injection, schedule: Q01DX009 (ip), vehicle: Klucel (hydroxypropylcellulose) (HPC)): 127 % of control
- T/C (dose: 100.0 mg/kg/injection, schedule: Q01DX009 (ip), vehicle: Klucel (hydroxypropylcellulose) (HPC)): 131 and 148 % of control
- survivor count (dose: 200.0 mg/kg/injection, schedule: Q01DX009 (ip), vehicle: Klucel (hydroxypropylcellulose) (HPC)): 3 of 6

Compound: CCc1nc2nc(C)cc(C)n2n1
- survivor count (dose: 12.5 mg/kg/injection, schedule: Q01DX009 (ip), vehicle: saline with Tween-80): 6 of 6

Compound: CCN(CC)c1ccc2cc(S(=O)(=O)c3ccccc3)c(=O)oc2c1
- survivor count (dose: 240.0 mg/kg/injection, schedule: Q01DX005 (ip), vehicle: saline with Tween-80): 4 of 6
